Source: article PMC5996148
Several values for one entry are separate records, joined by “and”; a condition that tells them apart may be missing. Equal entries are not always repeated. The list shows a part of the results.

Experiments:
Assay in all cases: protein microarray (ProtoArray v5.0), streptavidin-Alexa Fluor 647
Details in all cases: 3'-biotin; 20 mM Tris (pH 7.5), 5 mM MgCl2, 100 mM KCl, 0.1% Tween-20, A/T-rich and random oligonucleotide blockers; temperature not stated; high values mean tight binding
C4orf16 (human) = system: C4orf16 (human)
C4orf18 (human) = system: C4orf18 (human)
C4orf19 (human) = system: C4orf19 (human)
C4orf33 (human) = system: C4orf33 (human)
C4orf35 (human) = system: C4orf35 (human)
C5AR1 (human) = system: C5AR1 (human)
C5orf15 (human) = system: C5orf15 (human)
C5orf25 (human) = system: C5orf25 (human)
C5orf28 (human) = system: C5orf28 (human)
C5orf3 (human) = system: C5orf3 (human)
C6orf106 (human) = system: C6orf106 (human)
C6orf108 (human) = system: C6orf108 (human)
C6orf118 (human) = system: C6orf118 (human)
C6orf145 (human) = system: C6orf145 (human)
C6orf162 (human) = system: C6orf162 (human)
C6orf206 (human) = system: C6orf206 (human)
C6orf35 (human) = system: C6orf35 (human)
C6orf48 (human) = system: C6orf48 (human)
C6orf49 (human) = system: C6orf49 (human)
C6orf58 (human) = system: C6orf58 (human)

GGGAGGCTGAGGCAGG [G4-1 biotinylated (PQS2)]
binding signal (C4orf16 (human)): -0.322 z-score
binding signal (C4orf18 (human)): -0.327 z-score
binding signal (C4orf19 (human)): -0.338 z-score
binding signal (C4orf33 (human)): -0.316 z-score
binding signal (C4orf35 (human)): -0.356 z-score
binding signal (C5AR1 (human)): -0.342 z-score
binding signal (C5orf15 (human)): -0.271 z-score
binding signal (C5orf25 (human)): -0.297 z-score
binding signal (C5orf28 (human)): -0.312 z-score
binding signal (C5orf3 (human)): -0.342 z-score
binding signal (C6orf106 (human)): -0.323 z-score and -0.333 z-score
binding signal (C6orf108 (human)): -0.33 z-score
binding signal (C6orf118 (human)): -0.306 z-score
binding signal (C6orf145 (human)): -0.331 z-score
binding signal (C6orf162 (human)): -0.321 z-score
binding signal (C6orf206 (human)): -0.322 z-score
binding signal (C6orf35 (human)): -0.381 z-score
binding signal (C6orf48 (human)): -0.306 z-score
binding signal (C6orf49 (human)): -0.363 z-score
binding signal (C6orf58 (human)): -0.325 z-score
